{"sequences": {"note": "By UniProt entry, the sequences of proteins in these tests, tags left out.", "UniProt Q0JBA9, entry or part of it": "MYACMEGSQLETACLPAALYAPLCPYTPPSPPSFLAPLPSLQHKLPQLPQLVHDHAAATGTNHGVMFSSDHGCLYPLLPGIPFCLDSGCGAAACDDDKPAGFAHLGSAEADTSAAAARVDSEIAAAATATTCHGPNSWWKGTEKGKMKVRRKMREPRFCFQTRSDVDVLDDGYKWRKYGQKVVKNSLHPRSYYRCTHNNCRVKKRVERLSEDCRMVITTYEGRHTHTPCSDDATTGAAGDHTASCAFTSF"}, "source": "paper PMC7819943", "about": "“Rice protein-binding microarrays: a tool to detect cis-acting elements near promoter regions in rice”", "note": "The list shows a part of the results."}
{"biological_target": "OsWRKY34 (Oryza sativa, UniProt Q0JBA9 1-250)", "experiment": "protein-binding microarray (RPBM); PBS, 2% BSA, 51.3 ng/ul salmon testes DNA, 50 uM zinc acetate, 200 nM TF, 25 C, 1 h; high values mean tight binding", "conditions": "protein: recombinant; tags: N-terminal polyhistidine and DsRed monomer fusion (pET32a); label: CyDye5-dUTP incorporated in the synthesized complementary strand; 3' TTTTT single-stranded linker to array surface; dsDNA, one strand shown", "how_it_was_run": "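The binding signal is fluorescence intensity per array feature (arbitrary units). Readings came from an Axon 4000B scanner after a washed, 2% BSA-blocked, double-stranded custom Agilent array had been incubated for 1 h at 25 °C with 200 nM protein and 50 µM zinc acetate. The protein was a Ni–NTA-purified transcription factor fused N-terminally to polyhistidine and DsRed, expressed in E. coli BL21-CodonPlus.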"}
{"sequence": "CTCCACCCCATCCGCGCCGCTCGCTGTTTTCCTCCACCGCCGGAGTCACCTAGTGCAG", "binding signal": "13300 fluorescence intensity (a.u.)"}
{"sequence": "GAAGAAGCGGTGTGGTTCACTTTTGCAAATTCCACCCTGACGGAGTCACCTAGTGCAG", "binding signal": "8340 fluorescence intensity (a.u.)"}
{"sequence": "AGCAACTTTTTCCATGTCTGTCACTGTCACTAGAAGAAGCCGGAGTCACCTAGTGCAG", "binding signal": "8790 fluorescence intensity (a.u.)"}
{"sequence": "ACAGGGGCAGGGGTCATGTGGTGGAGGTAATCAATTAATCCGGAGTCACCTAGTGCAG", "binding signal": "9260 fluorescence intensity (a.u.)"}
{"sequence": "ATAATTCGTCCCCAAGTTTCCAGCCCAACCCAAATCGCGGCGGAGTCACCTAGTGCAG", "binding signal": "8260 fluorescence intensity (a.u.)"}
{"sequence": "GGAATTAGGGTTTAGGGTTTGCTTTATCGTGCAAACACCTCGGAGTCACCTAGTGCAG", "binding signal": "9070 fluorescence intensity (a.u.)"}
{"sequence": "GCTTTCTAGTTTTATTTTGACACTTCCCTTAACTAGTGTACGGAGTCACCTAGTGCAG", "binding signal": "8350 fluorescence intensity (a.u.)"}
{"sequence": "GTGAGTGCGCATCCGCCCCTGATTCCCAACTTGCGCCTGCCGGAGTCACCTAGTGCAG", "binding signal": "8940 fluorescence intensity (a.u.)"}
{"sequence": "CCCCTCACCTTCTCCGGCGATCGCCGCCGCGTCCGTACACCGGAGTCACCTAGTGCAG", "binding signal": "8020 fluorescence intensity (a.u.)"}
{"sequence": "GGAGGGTCTGTTTTCTTGTGTGCGAGCCTTGCTAGTTGCTCGGAGTCACCTAGTGCAG", "binding signal": "16500 fluorescence intensity (a.u.)"}
{"sequence": "CTAAGTACCCTGACATTACCAACGTTCATCTCCACGGCACCGGAGTCACCTAGTGCAG", "binding signal": "10000 fluorescence intensity (a.u.)"}
{"sequence": "CTCAAACGCGCGCGCGAGAGGAGGGGAGGGGTTTGGTTTGCGGAGTCACCTAGTGCAG", "binding signal": "12000 fluorescence intensity (a.u.)"}
{"sequence": "CAGACCAGGCATCCCGACACTACACGCAGACTCTCGACTTCGGAGTCACCTAGTGCAG", "binding signal": "8580 fluorescence intensity (a.u.)"}
{"sequence": "ATTACAGCTCAAGATGTGTCTCATTGCTCTCTGTGTTTCTCGGAGTCACCTAGTGCAG", "binding signal": "8630 fluorescence intensity (a.u.)"}
{"sequence": "TGAGAAGCCTCCATTGCCTCGTTTTTCTTTGATCTTCTCACGGAGTCACCTAGTGCAG", "binding signal": "9410 fluorescence intensity (a.u.)"}
{"sequence": "GTTTGGTTAATACGTGAGTTGTGGCAGCCATACTTTTTGCCGGAGTCACCTAGTGCAG", "binding signal": "8470 fluorescence intensity (a.u.)"}
{"sequence": "TCTCTCCTCCTCATACTACATAGTACTACCCATATATATTCGGAGTCACCTAGTGCAG", "binding signal": "9020 fluorescence intensity (a.u.)"}
{"sequence": "TTGCTTCGACGAAACTTCGACGACGCGTTCTCACCTTCTTCGGAGTCACCTAGTGCAG", "binding signal": "8510 fluorescence intensity (a.u.)"}
{"sequence": "AAACACACACATGTACACACACACACTCTCTCTCTCTCTCCGGAGTCACCTAGTGCAG", "binding signal": "8970 fluorescence intensity (a.u.)"}
{"sequence": "GTTACACTGGCCAGTACCTCTCCTGTCTCATATTACTTTACGGAGTCACCTAGTGCAG", "binding signal": "9250 fluorescence intensity (a.u.)"}
{"sequence": "TATGTTGTGCTTTGTATTTTTTTCCTGTTGTATTCACAATCGGAGTCACCTAGTGCAG", "binding signal": "12500 fluorescence intensity (a.u.)"}
{"sequence": "ATTATATGTTCTTTGTATTTAATTAACCATATATATGCAGCGGAGTCACCTAGTGCAG", "binding signal": "8020 fluorescence intensity (a.u.)"}
{"sequence": "ACACCTCTTCTGCTCATCTTCTTCTCATTCAACCACGCTTCGGAGTCACCTAGTGCAG", "binding signal": "8120 fluorescence intensity (a.u.)"}
{"sequence": "CTTGCTGCCTGGATTTCTCCCTGTTTGCTCCCTGACGGAGCGGAGTCACCTAGTGCAG", "binding signal": "9470 fluorescence intensity (a.u.)"}
{"sequence": "ACATTAGTTACGTTTTCTGGTTTATATACCTTTAATAATACGGAGTCACCTAGTGCAG", "binding signal": "8040 fluorescence intensity (a.u.)"}
{"sequence": "ATGGTGGCAGTAATTGGATATGAGTGTTTGGACATGTGTTCGGAGTCACCTAGTGCAG", "binding signal": "11100 fluorescence intensity (a.u.)"}
{"sequence": "GTACTCGTTGTCTGTCCGATCATCCTTTTTTTTTTCTTGTCGGAGTCACCTAGTGCAG", "binding signal": "9800 fluorescence intensity (a.u.)"}
{"sequence": "TCGCAACGCTACAGTAATCTCGTGTGCCCTATCTCGTTCGCGGAGTCACCTAGTGCAG", "binding signal": "11800 fluorescence intensity (a.u.)"}
{"sequence": "GAACTGCACCACTCAACATCTCCTACTACTAGTCAATCGTCGGAGTCACCTAGTGCAG", "binding signal": "8800 fluorescence intensity (a.u.)"}
{"sequence": "TGTGGTTTCTTTTGGTGCCCTTGTTTTGGGAGTTTATCAGCGGAGTCACCTAGTGCAG", "binding signal": "9890 fluorescence intensity (a.u.)"}
{"sequence": "CATAATCGTTGACCTGGCTAGACTCATAGGGCAATTTAGTCGGAGTCACCTAGTGCAG", "binding signal": "9900 fluorescence intensity (a.u.)"}
{"sequence": "CTACCCCAATTGGCCGACCACTCTCCCTCTCCATTTATTTCGGAGTCACCTAGTGCAG", "binding signal": "8040 fluorescence intensity (a.u.)"}
{"sequence": "ATTTCTCCAGTCACGTTACTGCTTACTACTGCTTACTACTCGGAGTCACCTAGTGCAG", "binding signal": "8440 fluorescence intensity (a.u.)"}
{"sequence": "CCCTGTCCCCGTCTCCTCCGTTGTTGCATGGGTCCCGCCTCGGAGTCACCTAGTGCAG", "binding signal": "8210 fluorescence intensity (a.u.)"}
{"sequence": "AAGACCATTTGCTCCATGATTTGACAATGTGATGCTATAACGGAGTCACCTAGTGCAG", "binding signal": "8100 fluorescence intensity (a.u.)"}
{"sequence": "AACTAGAAGGTATATACCAGGCTGTGTTTGTTTTGGGTGGCGGAGTCACCTAGTGCAG", "binding signal": "8150 fluorescence intensity (a.u.)"}
{"sequence": "TCTCCTAATATCTTCTCTTTTTTTTTCCCATTCCCAGTTTCGGAGTCACCTAGTGCAG", "binding signal": "9080 fluorescence intensity (a.u.)"}
{"sequence": "ATAATGCATCATGCCAACATTCTCCTAATTTTTCCACGCACGGAGTCACCTAGTGCAG", "binding signal": "8760 fluorescence intensity (a.u.)"}
{"sequence": "TAGTACTTATCACTAGTGATCCCATCGGTTTATGCAGCATCGGAGTCACCTAGTGCAG", "binding signal": "9010 fluorescence intensity (a.u.)"}
{"sequence": "GGTTATTGTGCCAGTATCGTGCCTGGTGCAACGAGAGCTCCGGAGTCACCTAGTGCAG", "binding signal": "10400 fluorescence intensity (a.u.)"}
{"sequence": "AGGGTTTTCTTCTCTTCTCCCTTTCCTGTCGTCGCCGCCACGGAGTCACCTAGTGCAG", "binding signal": "9750 fluorescence intensity (a.u.)"}
{"sequence": "ACACTGTATATCCGATCGAACTATATATATATCTGACATACGGAGTCACCTAGTGCAG", "binding signal": "10500 fluorescence intensity (a.u.)"}
